# Test results taken from doi:10.1101/2021.02.19.431861.
# Protein sequences, listed by entry. Tags and fused reporters are not part of them. Lines headed by an entry give the natural chain unless they say otherwise; changes in a name come on top.
# UniProt Q9BXW4: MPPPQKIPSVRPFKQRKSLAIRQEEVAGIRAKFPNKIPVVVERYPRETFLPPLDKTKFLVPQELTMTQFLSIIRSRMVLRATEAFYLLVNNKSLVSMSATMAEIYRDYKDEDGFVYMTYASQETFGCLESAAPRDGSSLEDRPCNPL
# UniProt Q8TDY2: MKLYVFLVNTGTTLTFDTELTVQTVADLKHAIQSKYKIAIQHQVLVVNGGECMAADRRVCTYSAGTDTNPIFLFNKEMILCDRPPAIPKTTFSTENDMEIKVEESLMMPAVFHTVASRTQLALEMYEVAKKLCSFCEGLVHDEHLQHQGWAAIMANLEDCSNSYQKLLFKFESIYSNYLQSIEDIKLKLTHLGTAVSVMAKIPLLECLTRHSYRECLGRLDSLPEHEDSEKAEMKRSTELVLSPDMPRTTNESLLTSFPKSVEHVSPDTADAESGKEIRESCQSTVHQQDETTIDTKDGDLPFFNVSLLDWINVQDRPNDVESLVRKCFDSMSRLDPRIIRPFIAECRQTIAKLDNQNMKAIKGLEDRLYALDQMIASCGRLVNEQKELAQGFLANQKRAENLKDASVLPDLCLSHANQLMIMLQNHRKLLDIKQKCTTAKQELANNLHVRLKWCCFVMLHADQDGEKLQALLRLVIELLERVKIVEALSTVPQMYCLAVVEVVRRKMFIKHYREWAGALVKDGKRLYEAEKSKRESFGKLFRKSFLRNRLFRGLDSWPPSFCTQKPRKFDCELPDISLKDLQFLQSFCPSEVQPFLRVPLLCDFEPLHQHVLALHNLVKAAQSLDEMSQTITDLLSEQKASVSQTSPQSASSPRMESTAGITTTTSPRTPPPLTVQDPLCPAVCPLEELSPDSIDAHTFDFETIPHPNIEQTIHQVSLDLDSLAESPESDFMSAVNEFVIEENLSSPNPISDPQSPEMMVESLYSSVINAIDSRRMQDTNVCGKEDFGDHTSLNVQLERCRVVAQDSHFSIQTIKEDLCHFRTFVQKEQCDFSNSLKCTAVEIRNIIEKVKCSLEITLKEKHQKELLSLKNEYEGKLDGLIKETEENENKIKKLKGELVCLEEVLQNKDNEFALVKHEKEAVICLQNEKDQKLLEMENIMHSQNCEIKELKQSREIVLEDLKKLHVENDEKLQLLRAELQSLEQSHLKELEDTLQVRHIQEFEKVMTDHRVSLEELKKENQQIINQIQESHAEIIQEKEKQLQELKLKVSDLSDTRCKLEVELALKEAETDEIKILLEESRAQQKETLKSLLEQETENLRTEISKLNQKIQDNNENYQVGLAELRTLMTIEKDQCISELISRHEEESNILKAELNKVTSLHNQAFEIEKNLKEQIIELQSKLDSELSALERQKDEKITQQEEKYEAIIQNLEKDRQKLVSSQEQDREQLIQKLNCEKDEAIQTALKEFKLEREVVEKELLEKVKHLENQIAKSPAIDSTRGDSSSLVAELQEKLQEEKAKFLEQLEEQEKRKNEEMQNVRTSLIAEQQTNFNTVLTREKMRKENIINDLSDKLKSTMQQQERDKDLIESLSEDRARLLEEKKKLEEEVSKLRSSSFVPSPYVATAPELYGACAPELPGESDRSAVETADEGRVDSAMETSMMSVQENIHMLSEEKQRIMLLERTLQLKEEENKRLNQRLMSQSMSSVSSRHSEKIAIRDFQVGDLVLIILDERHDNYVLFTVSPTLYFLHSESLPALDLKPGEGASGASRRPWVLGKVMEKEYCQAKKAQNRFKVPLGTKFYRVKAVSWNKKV
# UniProt O00443: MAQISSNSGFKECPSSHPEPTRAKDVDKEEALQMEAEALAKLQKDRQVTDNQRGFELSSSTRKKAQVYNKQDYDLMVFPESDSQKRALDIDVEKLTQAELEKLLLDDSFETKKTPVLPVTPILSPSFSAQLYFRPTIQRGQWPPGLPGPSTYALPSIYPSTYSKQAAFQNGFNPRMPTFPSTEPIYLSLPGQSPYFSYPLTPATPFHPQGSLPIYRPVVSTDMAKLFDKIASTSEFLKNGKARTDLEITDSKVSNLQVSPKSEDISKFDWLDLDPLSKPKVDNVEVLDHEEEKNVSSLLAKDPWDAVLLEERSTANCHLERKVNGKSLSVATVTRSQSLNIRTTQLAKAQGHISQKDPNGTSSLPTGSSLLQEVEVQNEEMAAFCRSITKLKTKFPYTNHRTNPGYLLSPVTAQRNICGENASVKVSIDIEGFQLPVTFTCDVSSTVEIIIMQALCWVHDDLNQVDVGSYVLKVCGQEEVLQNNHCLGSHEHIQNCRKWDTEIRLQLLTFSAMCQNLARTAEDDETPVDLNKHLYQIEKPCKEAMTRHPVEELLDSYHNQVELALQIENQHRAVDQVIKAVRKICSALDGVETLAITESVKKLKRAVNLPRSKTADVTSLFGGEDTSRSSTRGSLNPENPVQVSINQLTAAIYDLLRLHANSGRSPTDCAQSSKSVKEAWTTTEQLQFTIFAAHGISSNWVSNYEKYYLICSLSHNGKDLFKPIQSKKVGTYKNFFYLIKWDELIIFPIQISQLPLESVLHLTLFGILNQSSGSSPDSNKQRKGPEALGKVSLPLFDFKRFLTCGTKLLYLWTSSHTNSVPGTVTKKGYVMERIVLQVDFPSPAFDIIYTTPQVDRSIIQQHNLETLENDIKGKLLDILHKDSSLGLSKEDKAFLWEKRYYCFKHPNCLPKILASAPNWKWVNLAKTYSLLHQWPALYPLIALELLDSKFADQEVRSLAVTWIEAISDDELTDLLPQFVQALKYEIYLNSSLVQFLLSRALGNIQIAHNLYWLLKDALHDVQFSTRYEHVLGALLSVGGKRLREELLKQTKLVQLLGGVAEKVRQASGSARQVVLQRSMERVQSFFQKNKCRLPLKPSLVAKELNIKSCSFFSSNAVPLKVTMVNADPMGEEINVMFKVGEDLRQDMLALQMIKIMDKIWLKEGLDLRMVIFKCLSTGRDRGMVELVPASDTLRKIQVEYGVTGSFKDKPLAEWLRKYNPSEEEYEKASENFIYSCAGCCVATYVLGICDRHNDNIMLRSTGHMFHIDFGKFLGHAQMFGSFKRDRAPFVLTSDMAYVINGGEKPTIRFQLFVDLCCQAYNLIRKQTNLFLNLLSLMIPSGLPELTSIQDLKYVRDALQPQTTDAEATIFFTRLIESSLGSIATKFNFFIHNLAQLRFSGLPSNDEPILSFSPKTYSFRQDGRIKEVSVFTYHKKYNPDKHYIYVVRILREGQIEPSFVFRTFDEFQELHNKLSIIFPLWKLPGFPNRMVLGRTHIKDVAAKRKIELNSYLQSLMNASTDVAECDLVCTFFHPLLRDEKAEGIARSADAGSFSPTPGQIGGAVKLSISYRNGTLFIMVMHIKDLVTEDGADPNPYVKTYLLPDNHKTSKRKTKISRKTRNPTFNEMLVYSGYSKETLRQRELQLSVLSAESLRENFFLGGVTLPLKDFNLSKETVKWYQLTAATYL
# UniProt Q14457: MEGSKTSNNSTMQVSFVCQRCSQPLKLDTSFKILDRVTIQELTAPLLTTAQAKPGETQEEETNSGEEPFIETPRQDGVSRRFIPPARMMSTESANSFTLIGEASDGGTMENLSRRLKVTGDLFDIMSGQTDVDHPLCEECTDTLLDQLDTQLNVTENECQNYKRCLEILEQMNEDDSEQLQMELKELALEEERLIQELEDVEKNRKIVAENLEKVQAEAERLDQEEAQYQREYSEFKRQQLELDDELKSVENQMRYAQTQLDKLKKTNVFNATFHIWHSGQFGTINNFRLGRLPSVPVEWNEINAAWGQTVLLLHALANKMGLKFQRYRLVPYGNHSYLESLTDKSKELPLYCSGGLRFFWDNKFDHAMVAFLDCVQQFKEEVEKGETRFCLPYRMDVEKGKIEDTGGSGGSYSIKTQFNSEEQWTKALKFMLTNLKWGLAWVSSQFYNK
# No constants are given. Whether binding was seen depends on the method and setting. Binding seen in cells or lysates may run through a third protein. Binding calls can cover weak binding; strength is not graded here.
# What was measured:
# [1] = molecular target: FLAG-tagged LC3C wild type (UniProt Q9BXW4); experiment: co-IP
# LC3C G126A mutant = LC3C G126A mutant (UniProt Q9BXW4); experiment: co-IP
Molecule,binding [1],binding (LC3C G126A mutant)
FIP200 (endogenous) (from UniProt Q8TDY2 1-1594),binds,binds
PIK3C2A (endogenous) (from UniProt O00443 1-1686),–,binds
BECN1 (endogenous) (from UniProt Q14457 1-450),binds,–
"ULK3 (endogenous) (protein, UniProt Q6PHR2 1-472) MAGPGWGPPRLDGFILTERLGSGTYATVYKAYAKKDTREVVAIKCVAKKSLNKASVENLLTEIEILKGIRHPHIVQLKDFQWDSDNIYLIMEFCAGGDLSRFIHTRRILPEKVARVFMQQLASALQFLHERNISHLDLKPQNILLSSLEKPHLKLADFGFAQHMSPWDEKHVLRGSPLYMAPEMVCQRQYDARVDLWSMGVILYEALFGQPPFASRSFSELEEKIRSNRVIELPLRPLLSRDCRDLLQRLLERDPSRRISFQDFFAHPWVDLEHMPSGESLGRATALVVQAVKKDQEGDSAAALSLYCKALDFFVPALHYEVDAQRKEAIKAKVGQYVSRAEELKAIVSSSNQALLRQGTSARDLLREMARDKPRLLAALEVASAAMAKEEAAGGEQDALDLYQHSLGELLLLLAAEPPGRRRELLHTEVQNLMARAEYLKEQVKMRESRWEADTLDKEGLSESVRSSCTLQ",–,binds
"RUBCN (endogenous) (protein, UniProt Q92622 1-972) MRPEGAGMELGGGEERLPEESRREHWQLLGNLKTTVEGLVSTNSPNVWSKYGGLERLCRDMQSILYHGLIRDQACRRQTDYWQFVKDIRWLSPHSALHVEKFISVHENDQSSADGASERAVAELWLQHSLQYHCLSAQLRPLLGDRQYIRKFYTDAAFLLSDAHVTAMLQCLEAVEQNNPRLLAQIDASMFARKHESPLLVTKSQSLTALPSSTYTPPNSYAQHSYFGSFSSLHQSVPNNGSERRSTSFPLSGPPRKPQESRGHVSPAEDQTIQAPPVSVSALARDSPLTPNEMSSSTLTSPIEASWVSSQNDSPGDASEGPEYLAIGNLDPRGRTASCQSHSSNAESSSSNLFSSSSSQKPDSAASSLGDQEGGGESQLSSVLRRSSFSEGQTLTVTSGAKKSHIRSHSDTSIASRGAPESCNDKAKLRGPLPYSGQSSEVSTPSSLYMEYEGGRYLCSGEGMFRRPSEGQSLISYLSEQDFGSCADLEKENAHFSISESLIAAIELMKCNMMSQCLEEEEVEEEDSDREIQELKQKIRLRRQQIRTKNLLPMYQEAEHGSFRVTSSSSQFSSRDSAQLSDSGSADEVDEFEIQDADIRRNTASSSKSFVSSQSFSHCFLHSTSAEAVAMGLLKQFEGMQLPAASELEWLVPEHDAPQKLLPIPDSLPISPDDGQHADIYKLRIRVRGNLEWAPPRPQIIFNVHPAPTRKIAVAKQNYRCAGCGIRTDPDYIKRLRYCEYLGKYFCQCCHENAQMAIPSRVLRKWDFSKYYVSNFSKDLLIKIWNDPLFNVQDINSALYRKVKLLNQVRLLRVQLCHMKNMFKTCRLAKELLDSFDTVPGHLTEDLHLYSLNDLTATRKGELGPRLAELTRAGATHVERCMLCQAKGFICEFCQNEDDIIFPFELHKCRTCEECKACYHKACFKSGSCPRCERLQARREALARQSLESYLSDYEEEPAEALALEAAVLEAT",–,binds
